Experimental data as given in publication PMC6454061.
These are yes or no findings as the source states them, for the method shown. Binding seen in cells or lysates may run through a third protein. Some binding calls cover weakened binding; strength is not graded here.

Protein sequences, listed by entry. Tags and fused reporters are not part of them.
UniProt Q9NS00: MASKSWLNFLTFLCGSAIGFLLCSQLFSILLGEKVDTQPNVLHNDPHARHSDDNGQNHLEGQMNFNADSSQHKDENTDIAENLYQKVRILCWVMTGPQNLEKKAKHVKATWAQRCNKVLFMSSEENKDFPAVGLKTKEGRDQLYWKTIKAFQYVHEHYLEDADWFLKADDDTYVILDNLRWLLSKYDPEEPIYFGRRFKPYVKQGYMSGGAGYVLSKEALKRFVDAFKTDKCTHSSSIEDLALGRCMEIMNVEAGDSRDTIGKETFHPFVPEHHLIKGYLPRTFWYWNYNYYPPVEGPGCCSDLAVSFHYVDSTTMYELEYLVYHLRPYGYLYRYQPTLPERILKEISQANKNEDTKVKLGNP

Key:
Assay in all cases: FRET or BRET; mVenus- and mCherry-tagged enzyme constructs co-transfected in COS-7 cells, fixed with 4% PFA, FRET quantified by high content imaging (Operetta); normoxic cells as the reference (100%); cells also compared after moderate hypoxia (5% O2, 4-24 h) or 3-10 mM DTT; mutants given as percent of wild type
C3GNT-1 = target: T1, C3GNT-1 (UniProt Q6ZMB0)
T1 sequence: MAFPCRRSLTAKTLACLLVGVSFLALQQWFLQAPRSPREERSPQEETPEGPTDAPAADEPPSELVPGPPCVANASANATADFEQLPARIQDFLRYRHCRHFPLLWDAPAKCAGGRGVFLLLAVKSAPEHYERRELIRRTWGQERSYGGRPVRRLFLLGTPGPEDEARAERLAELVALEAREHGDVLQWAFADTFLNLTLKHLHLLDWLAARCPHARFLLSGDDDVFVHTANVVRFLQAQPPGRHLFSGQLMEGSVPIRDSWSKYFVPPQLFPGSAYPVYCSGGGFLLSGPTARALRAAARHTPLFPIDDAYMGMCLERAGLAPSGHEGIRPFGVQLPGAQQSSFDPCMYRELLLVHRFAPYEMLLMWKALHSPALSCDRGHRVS

C1GalT-I = C1GalT-I (UniProt Q9NS00)
C2GNT-1 = target: T2, C2GNT-1 (UniProt Q02742)
T2 sequence: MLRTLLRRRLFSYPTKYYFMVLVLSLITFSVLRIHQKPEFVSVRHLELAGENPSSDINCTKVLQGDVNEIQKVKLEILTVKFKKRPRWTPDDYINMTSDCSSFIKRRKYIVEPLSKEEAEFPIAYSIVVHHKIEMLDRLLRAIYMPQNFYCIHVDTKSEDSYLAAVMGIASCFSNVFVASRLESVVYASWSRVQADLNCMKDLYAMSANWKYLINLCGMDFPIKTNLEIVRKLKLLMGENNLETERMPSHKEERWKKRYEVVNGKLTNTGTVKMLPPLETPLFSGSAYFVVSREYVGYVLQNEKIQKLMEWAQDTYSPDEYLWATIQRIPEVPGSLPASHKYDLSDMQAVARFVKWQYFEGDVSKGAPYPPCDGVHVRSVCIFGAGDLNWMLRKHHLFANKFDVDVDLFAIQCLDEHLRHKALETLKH

binding (C3GNT-1): binds
binding (C1GalT-I): binds
binding (C2GNT-1): binds
B1: ppGalNAcT-6 (enzyme, UniProt Q8NCL4 1-622)
chain: MRLLRRRHMPLRLAMVGCAFVLFLFLLHRDVSSREEATEKPWLKSLVSRKDHVLDLMLEAMNNLRDSMPKLQIRAPEAQQTLFSINQSCLPGFYTPAELKPFWERPPQDPNAPGADGKAFQKSKWTPLETQEKEEGYKKHCFNAFASDRISLQRSLGPDTRPPECVDQKFRRCPPLATTSVIIVFHNEAWSTLLRTVYSVLHTTPAILLKEIILVDDASTEEHLKEKLEQYVKQLQVVRVVRQEERKGLITARLLGASVAQAEVLTFLDAHCECFHGWLEPLLARIAEDKTVVVSPDIVTIDLNTFEFAKPVQRGRVHSRGNFDWSLTFGWETLPPHEKQRRKDETYPIKSPTFAGGLFSISKSYFEHIGTYDNQMEIWGGENVEMSFRVWQCGGQLEIIPCSVVGHVFRTKSPHTFPKGTSVIARNQVRLAEVWMDSYKKIFYRRNLQAAKMAQEKSFGDISERLQLREQLHCHNFSWYLHNVYPEMFVPDLTPTFYGAIKNLGTNQCLDVGENNRGGKPLIMYSCHGLGGNQYFEYTTQRDLRHNIAKQLCLHVSKGALGLGSCHFTGKNSQVPKDEEWELAQDQLIRNSGSGTCLTSQDKKPAMAPCNPSDPHQLWLFV
